Results are given in words; binding and its absence hold for the method and conditions named. In cells and extracts the contact can be indirect. Here binding means that the protein was enriched with, or labelled near, the bait; the list need not be complete.
Biological target: FLAG-TMCC1 (FLAG-tagged full-length TMCC1) (human) (UniProt O94876)
Assay: affinity purification with mass spectrometry; HEK293T transfected with FLAG-TMCC1 or vector; anti-FLAG immunoprecipitation, SDS-PAGE, Coomassie Brilliant Blue R-250 staining, bands identified by mass spectrometry

Protein sequences, listed by entry. Tags and fused reporters are not part of them.
UniProt P06748: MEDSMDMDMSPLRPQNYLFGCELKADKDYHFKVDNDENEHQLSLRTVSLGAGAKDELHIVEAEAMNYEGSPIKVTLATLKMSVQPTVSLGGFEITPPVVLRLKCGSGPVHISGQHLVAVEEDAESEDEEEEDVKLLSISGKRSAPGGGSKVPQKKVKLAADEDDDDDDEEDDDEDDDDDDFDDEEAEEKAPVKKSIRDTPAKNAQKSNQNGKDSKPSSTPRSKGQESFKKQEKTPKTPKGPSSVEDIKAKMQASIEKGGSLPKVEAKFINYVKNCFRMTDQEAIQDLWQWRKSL

Substance: nucleophosmin (from UniProt P06748 1-294)
- binding: binds
